Structures can show the parent of a compound that is named as a salt. Some of the results follow. The calls rarely recur for the same compound in another form.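 Kinases, fused to nanoluciferase, were expressed in K562 cells; luminescence was measured every 4 h from 2 to 18 h as percent of control (DMSO = 100%, positive control = 0%). A time point is decreased if signal falls significantly (2 sigma). Hits were called by the authors by a rule that is not shown; the count of time points alone does not decide it.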
Tests used:
Experiment in all cases: kinase-Nluc reporter destabilization hit call (1 = scored as downregulated) (binary); higher = compound decreases kinase abundance
Conditions in all cases: K562; 2-18 h
EPHA2 = EPHA2 (UniProt P29317)
ERBB3 = ERBB3 (UniProt P21860)
[1] = molecular target: ERBB4_R711C (clone: ERBB4_mut) (UniProt Q15303)
EGFR = EGFR (UniProt P00533)
EGFR_G719S = EGFR_G719S (UniProt P00533)
EGFR_G719S_T790M = EGFR_G719S_T790M (UniProt P00533)
EGFR_L718V = EGFR_L718V (UniProt P00533)
EGFR_L858R = EGFR_L858R (UniProt P00533)
EGFR_L861Q = EGFR_L861Q (UniProt P00533)
EGFR_T790M = EGFR_T790M (UniProt P00533)

Protein sequences, listed by entry. Tags and fused reporters are not part of them.
UniProt P29317, whole entry: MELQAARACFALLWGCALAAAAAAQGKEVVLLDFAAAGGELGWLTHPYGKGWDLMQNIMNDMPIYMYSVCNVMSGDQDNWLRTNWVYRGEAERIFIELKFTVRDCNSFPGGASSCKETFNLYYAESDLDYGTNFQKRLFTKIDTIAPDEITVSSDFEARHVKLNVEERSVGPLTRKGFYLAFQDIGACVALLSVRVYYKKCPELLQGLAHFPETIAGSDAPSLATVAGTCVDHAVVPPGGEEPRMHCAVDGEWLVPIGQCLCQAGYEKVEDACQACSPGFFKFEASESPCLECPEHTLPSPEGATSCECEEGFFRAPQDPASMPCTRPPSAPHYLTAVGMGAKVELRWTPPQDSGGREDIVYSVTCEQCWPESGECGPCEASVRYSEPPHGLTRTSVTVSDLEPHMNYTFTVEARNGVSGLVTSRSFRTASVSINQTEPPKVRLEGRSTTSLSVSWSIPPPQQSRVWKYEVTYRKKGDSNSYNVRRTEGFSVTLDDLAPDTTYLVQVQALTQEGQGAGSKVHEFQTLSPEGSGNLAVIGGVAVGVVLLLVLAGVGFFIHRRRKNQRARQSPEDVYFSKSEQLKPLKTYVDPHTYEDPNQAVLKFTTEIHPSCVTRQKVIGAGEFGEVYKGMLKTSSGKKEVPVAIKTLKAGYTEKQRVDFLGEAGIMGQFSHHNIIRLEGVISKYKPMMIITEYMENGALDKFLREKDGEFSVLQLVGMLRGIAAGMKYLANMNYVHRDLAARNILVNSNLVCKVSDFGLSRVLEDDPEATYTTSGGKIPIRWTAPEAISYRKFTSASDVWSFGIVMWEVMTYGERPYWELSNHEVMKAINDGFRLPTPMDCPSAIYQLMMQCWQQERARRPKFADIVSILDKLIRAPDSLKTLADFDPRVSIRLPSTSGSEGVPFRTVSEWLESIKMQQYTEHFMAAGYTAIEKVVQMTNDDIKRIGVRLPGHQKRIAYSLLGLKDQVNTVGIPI
UniProt P21860, whole entry: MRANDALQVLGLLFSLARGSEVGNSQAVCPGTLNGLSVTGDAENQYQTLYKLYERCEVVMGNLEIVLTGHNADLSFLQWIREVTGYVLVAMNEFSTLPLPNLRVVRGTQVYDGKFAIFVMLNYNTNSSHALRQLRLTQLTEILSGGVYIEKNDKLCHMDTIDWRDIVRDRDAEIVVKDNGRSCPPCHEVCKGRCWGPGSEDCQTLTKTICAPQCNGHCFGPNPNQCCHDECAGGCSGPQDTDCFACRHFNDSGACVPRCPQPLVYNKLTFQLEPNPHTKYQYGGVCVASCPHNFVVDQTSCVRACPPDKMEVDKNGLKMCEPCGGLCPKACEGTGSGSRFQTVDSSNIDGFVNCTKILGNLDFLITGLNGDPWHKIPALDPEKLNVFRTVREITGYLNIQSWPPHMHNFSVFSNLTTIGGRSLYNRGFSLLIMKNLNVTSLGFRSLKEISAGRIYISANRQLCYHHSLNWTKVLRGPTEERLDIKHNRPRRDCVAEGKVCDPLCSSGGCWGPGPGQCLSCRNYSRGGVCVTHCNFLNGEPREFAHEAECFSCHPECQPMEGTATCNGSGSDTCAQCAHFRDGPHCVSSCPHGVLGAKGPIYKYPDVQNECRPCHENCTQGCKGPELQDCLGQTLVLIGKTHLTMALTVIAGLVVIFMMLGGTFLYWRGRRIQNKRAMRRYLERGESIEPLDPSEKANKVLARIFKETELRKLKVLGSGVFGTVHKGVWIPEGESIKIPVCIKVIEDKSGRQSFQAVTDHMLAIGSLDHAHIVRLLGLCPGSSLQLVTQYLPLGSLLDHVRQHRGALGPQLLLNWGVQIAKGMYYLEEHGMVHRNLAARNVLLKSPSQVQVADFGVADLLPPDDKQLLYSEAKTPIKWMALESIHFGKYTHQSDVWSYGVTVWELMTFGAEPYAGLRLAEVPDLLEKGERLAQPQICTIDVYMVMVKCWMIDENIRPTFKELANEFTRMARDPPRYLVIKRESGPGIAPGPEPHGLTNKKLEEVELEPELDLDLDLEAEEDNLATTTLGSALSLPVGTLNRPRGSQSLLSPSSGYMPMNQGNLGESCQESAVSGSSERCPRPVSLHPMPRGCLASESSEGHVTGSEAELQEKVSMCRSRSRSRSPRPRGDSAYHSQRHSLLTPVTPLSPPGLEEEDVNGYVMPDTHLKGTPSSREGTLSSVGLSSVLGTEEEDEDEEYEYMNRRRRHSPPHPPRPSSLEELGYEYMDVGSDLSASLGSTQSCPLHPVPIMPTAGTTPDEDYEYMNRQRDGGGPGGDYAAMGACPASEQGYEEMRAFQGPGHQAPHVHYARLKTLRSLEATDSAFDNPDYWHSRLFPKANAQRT
UniProt Q15303, whole entry R711C: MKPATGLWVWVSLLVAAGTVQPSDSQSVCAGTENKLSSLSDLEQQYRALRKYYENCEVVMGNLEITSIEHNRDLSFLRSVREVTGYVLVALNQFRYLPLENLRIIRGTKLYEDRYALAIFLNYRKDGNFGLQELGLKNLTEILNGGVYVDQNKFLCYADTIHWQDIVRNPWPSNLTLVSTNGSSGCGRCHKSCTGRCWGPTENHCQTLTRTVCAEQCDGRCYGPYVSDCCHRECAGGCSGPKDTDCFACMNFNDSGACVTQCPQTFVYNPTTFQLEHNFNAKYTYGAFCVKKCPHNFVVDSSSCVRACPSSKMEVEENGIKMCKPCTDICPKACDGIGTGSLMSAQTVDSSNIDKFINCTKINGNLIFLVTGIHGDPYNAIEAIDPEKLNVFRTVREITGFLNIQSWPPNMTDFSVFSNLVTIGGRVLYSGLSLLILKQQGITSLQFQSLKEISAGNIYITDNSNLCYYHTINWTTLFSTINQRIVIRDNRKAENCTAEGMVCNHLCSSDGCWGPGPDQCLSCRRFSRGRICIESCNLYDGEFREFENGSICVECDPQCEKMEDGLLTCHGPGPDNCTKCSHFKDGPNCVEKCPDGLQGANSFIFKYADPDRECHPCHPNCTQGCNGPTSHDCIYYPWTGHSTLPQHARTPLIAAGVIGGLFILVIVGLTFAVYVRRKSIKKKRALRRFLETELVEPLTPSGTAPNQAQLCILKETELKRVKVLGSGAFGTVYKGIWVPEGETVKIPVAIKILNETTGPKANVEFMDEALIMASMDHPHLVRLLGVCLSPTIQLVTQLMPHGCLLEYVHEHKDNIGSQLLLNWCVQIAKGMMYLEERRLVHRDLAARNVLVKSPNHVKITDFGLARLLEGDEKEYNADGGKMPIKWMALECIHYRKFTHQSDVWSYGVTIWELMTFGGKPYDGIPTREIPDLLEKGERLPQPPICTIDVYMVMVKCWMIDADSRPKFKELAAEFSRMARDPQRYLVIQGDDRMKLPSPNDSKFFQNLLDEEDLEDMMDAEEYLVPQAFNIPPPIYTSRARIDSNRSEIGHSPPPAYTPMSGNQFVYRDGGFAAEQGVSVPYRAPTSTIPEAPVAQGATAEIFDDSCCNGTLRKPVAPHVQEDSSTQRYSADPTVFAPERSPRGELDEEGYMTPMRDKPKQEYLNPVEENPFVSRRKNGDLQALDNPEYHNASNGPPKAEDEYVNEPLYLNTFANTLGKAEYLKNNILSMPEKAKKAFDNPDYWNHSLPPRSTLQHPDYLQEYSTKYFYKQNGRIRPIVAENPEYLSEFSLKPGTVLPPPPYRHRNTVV

SMILES	kinase-Nluc reporter destabilization hit call (EPHA2)	kinase-Nluc reporter destabilization hit call (ERBB3)	kinase-Nluc reporter destabilization hit call [1]	kinase-Nluc reporter destabilization hit call (EGFR)	kinase-Nluc reporter destabilization hit call (EGFR_G719S)	kinase-Nluc reporter destabilization hit call (EGFR_G719S_T790M)	kinase-Nluc reporter destabilization hit call (EGFR_L718V)	kinase-Nluc reporter destabilization hit call (EGFR_L858R)	kinase-Nluc reporter destabilization hit call (EGFR_L861Q)	kinase-Nluc reporter destabilization hit call (EGFR_T790M)
COc1nccc(-c2c(-c3ccc(F)cc3)ncn2C2CCC(O)CC2)n1 (stereo not drawn) (10 µM)	inactive: 0	inactive: 0	inactive: 0	–	–	–	–	–	–	–
CCC(=O)N1CCN(c2ccc(-n3c(=O)ccc4cnc5ccc(-c6cnc7ccccc7c6)cc5c43)cc2C(F)(F)F)CC1 [Torin 1] (2 µM)	inactive: 0	inactive: 0	inactive: 0	inactive: 0	inactive: 0	inactive: 0	inactive: 0	inactive: 0	inactive: 0	–
C[C@H](NC(=O)/C(C#N)=C/c1cccc(Br)n1)c1ccccc1 (2.5 µM)	inactive: 0	inactive: 0	inactive: 0	inactive: 0	inactive: 0	inactive: 0	inactive: 0	inactive: 0	inactive: 0	–
COc1cc(F)cc([C@@H](CO)NC(=O)[C@@H](C)N2Cc3ccc(-c4nc(NC5CCOCC5)ncc4Cl)cc3C2=O)c1 [ERK1/2 inhibitor 2] (10 µM)	inactive: 0	inactive: 0	inactive: 0	inactive: 0	inactive: 0	inactive: 0	inactive: 0	inactive: 0	inactive: 0	inactive: 0
Cc1cc(CS(=O)(=O)c2ccccc2)cc(OCc2ccc(CN3CCC[C@@H]3CO)cc2)c1 [PF-543 (Citrate)] (10 µM)	inactive: 0	inactive: 0	inactive: 0	inactive: 0	inactive: 0	inactive: 0	inactive: 0	inactive: 0	inactive: 0	inactive: 0
C=CC(=O)Nc1cccc(Nc2nc(Nc3ccc(OCCOC)cc3)ncc2F)c1 [Spebrutinib] (10 µM)	inactive: 0	inactive: 0	inactive: 0	inactive: 0	inactive: 0	inactive: 0	inactive: 0	inactive: 0	inactive: 0	inactive: 0
COc1c(Cl)cc2c([nH]c3cnccc32)c1NC(=O)c1cccnc1C (10 µM)	inactive: 0	inactive: 0	inactive: 0	inactive: 0	inactive: 0	inactive: 0	inactive: 0	inactive: 0	inactive: 0	inactive: 0
CCCCC[C@H](O)CC(=O)CCc1ccc(O)c(OC)c1 [[6]-Gingerol] (10 µM)	inactive: 0	inactive: 0	inactive: 0	–	inactive: 0	inactive: 0	inactive: 0	inactive: 0	inactive: 0	inactive: 0
CC(C)n1cnc2c(NCc3cccc(C(F)(F)F)c3)ncnc21 [Longdaysin] (10 µM)	inactive: 0	inactive: 0	inactive: 0	inactive: 0	inactive: 0	inactive: 0	inactive: 0	inactive: 0	inactive: 0	–
N#C/C(=C\c1ccc(O)c(O)c1)C(=O)NCCCc1ccccc1 (10 µM)	inactive: 0	inactive: 0	inactive: 0	–	–	–	–	–	–	–
Cc1c[nH]c2ccccc12 [Skatole] (10 µM)	inactive: 0	inactive: 0	inactive: 0	inactive: 0	inactive: 0	inactive: 0	inactive: 0	inactive: 0	inactive: 0	–
Cc1ccc(S(=O)(=O)Nc2nc3ccccc3nc2Nc2ccc3nsnc3c2)cc1 [Pilaralisib analogue] (10 µM)	inactive: 0	active: 1	active: 1	inactive: 0	inactive: 0	inactive: 0	inactive: 0	active: 1	inactive: 0	–
COc1cc(OC)c(F)c(COc2cnc(Nc3cnn(CCO)c3)nc2)c1F (2.5 µM)	inactive: 0	inactive: 0	inactive: 0	inactive: 0	inactive: 0	inactive: 0	inactive: 0	inactive: 0	inactive: 0	inactive: 0
COc1c(CC=C(C)C)c(O)cc2oc(=O)c(-c3ccc(O)cc3O)cc12 [Glycycoumarin] (10 µM)	inactive: 0	inactive: 0	inactive: 0	inactive: 0	inactive: 0	inactive: 0	inactive: 0	inactive: 0	inactive: 0	–
CC(C)c1cnn2c(NCc3ccccc3)cc(NC[C@H]3CCNC[C@@H]3O)nc12 [Samuraciclib (hydrochloride)] (10 µM)	inactive: 0	inactive: 0	inactive: 0	inactive: 0	inactive: 0	inactive: 0	inactive: 0	inactive: 0	inactive: 0	inactive: 0
Cc1cc(C(=O)Nc2cccc(C(=O)Nc3cccc(C(F)(F)F)c3)c2)on1 (10 µM)	inactive: 0	inactive: 0	inactive: 0	inactive: 0	inactive: 0	inactive: 0	inactive: 0	inactive: 0	inactive: 0	–
COc1cc2ncnc(Nc3ccc(O)cc3)c2cc1OC (10 µM)	inactive: 0	inactive: 0	inactive: 0	inactive: 0	inactive: 0	inactive: 0	inactive: 0	inactive: 0	inactive: 0	inactive: 0

Quoted from the listing.
Value of C[C@H](NC(=O)/C(C#N)=C/c1cccc(Br)n1)c1ccccc1 (2.5 µM) under kinase-Nluc reporter destabilization hit call (EGFR_L861Q): inactive: 0
Value of CCC(=O)N1CCN(c2ccc(-n3c(=O)ccc4cnc5ccc(-c6cnc7ccccc7c6)cc5c43)cc2C(F)(F)F)CC1 [Torin 1] (2 µM) under kinase-Nluc reporter destabilization hit call [1]: inactive: 0

Remaining list, next part

SMILES	kinase-Nluc reporter destabilization hit call (EPHA2)	kinase-Nluc reporter destabilization hit call (ERBB3)	kinase-Nluc reporter destabilization hit call [1]	kinase-Nluc reporter destabilization hit call (EGFR)	kinase-Nluc reporter destabilization hit call (EGFR_G719S)	kinase-Nluc reporter destabilization hit call (EGFR_G719S_T790M)	kinase-Nluc reporter destabilization hit call (EGFR_L718V)	kinase-Nluc reporter destabilization hit call (EGFR_L858R)	kinase-Nluc reporter destabilization hit call (EGFR_L861Q)	kinase-Nluc reporter destabilization hit call (EGFR_T790M)
N#C/C(=C\c1ccc(O)c(O)c1)C(=O)NCc1ccccc1 (10 µM)	inactive: 0	inactive: 0	inactive: 0	–	–	–	–	–	–	–
Cc1c(Cn2c(C)nc3c(C(=O)O)cc(N4CCOCC4)cc32)cccc1C(F)(F)F (10 µM)	inactive: 0	inactive: 0	inactive: 0	inactive: 0	inactive: 0	–	–	–	–	–
CC1(C)CC=C(c2nc(C3CC(C)(C)OC(C)(C)C3)ccc2NC(=O)c2nc(C#N)c[nH]2)CC1 [Edicotinib] (2.5 µM)	inactive: 0	inactive: 0	inactive: 0	inactive: 0	inactive: 0	inactive: 0	inactive: 0	inactive: 0	inactive: 0	inactive: 0
C=CC(=O)N1CCN(CCCn2c(=O)c(-c3c(Cl)c(OC)cc(OC)c3Cl)cc3cnc(NC)nc32)CC1 (10 µM)	inactive: 0	inactive: 0	inactive: 0	inactive: 0	inactive: 0	inactive: 0	inactive: 0	inactive: 0	inactive: 0	inactive: 0
C=CC(=O)N1CC[C@H](n2nc(C#Cc3cc(OC)cc(OC)c3)c3c(N)ncnc32)C1 [Futibatinib] (10 µM)	inactive: 0	inactive: 0	inactive: 0	inactive: 0	inactive: 0	inactive: 0	inactive: 0	inactive: 0	inactive: 0	inactive: 0
O=C([O-])c1ccccc1O.[Na+] [Sodium Salicylate] (10 µM)	inactive: 0	inactive: 0	inactive: 0	inactive: 0	inactive: 0	inactive: 0	inactive: 0	inactive: 0	inactive: 0	–
CC(C)C(=O)Nc1ncc(-c2cc(C(F)F)nn2-c2c(Cl)cccc2Cl)s1 (10 µM)	inactive: 0	inactive: 0	inactive: 0	inactive: 0	–	inactive: 0	inactive: 0	inactive: 0	inactive: 0	inactive: 0
CCN1C(=O)N(c2c(F)c(OC)cc(OC)c2F)Cc2cnc3[nH]c(CN4CCOCC4)cc3c21 [Pemigatinib] (10 µM)	inactive: 0	inactive: 0	inactive: 0	inactive: 0	inactive: 0	inactive: 0	inactive: 0	inactive: 0	inactive: 0	inactive: 0
CCCCOc1c(C(=O)c2c(F)cc(C)cc2F)c[nH]c2nncc1-2 (10 µM)	inactive: 0	inactive: 0	inactive: 0	inactive: 0	inactive: 0	inactive: 0	inactive: 0	inactive: 0	inactive: 0	–
Cc1ccc2c(Nc3cccc(OC(F)(F)F)c3)nccc2c1Nc1ncccc1-c1ncnc2[nH]cnc12 (10 µM)	inactive: 0	inactive: 0	inactive: 0	inactive: 0	inactive: 0	inactive: 0	inactive: 0	inactive: 0	inactive: 0	inactive: 0
Cc1cccc(Cn2nc(C3CC3)c3c(NC(=O)c4cnc5cc(OCCN6CCN(C)CC6)ccn45)cccc32)n1 (10 µM)	inactive: 0	inactive: 0	inactive: 0	inactive: 0	inactive: 0	inactive: 0	inactive: 0	inactive: 0	inactive: 0	inactive: 0
COc1cc(OC)cc(-c2cc3cnc(N)nc3nc2NC(=O)NC(C)(C)C)c1 (10 µM)	inactive: 0	inactive: 0	inactive: 0	–	–	–	–	–	–	–
O=c1cc(N2CCOCC2)oc2c(-c3ccccc3)cccc12 (10 µM)	inactive: 0	inactive: 0	inactive: 0	–	–	–	–	–	–	–
C/C=C(/C)C(=O)O[C@H]1Cc2cc3ccc(=O)oc3cc2OC1(C)C [Decursinol angelate] (10 µM)	inactive: 0	inactive: 0	inactive: 0	inactive: 0	inactive: 0	inactive: 0	inactive: 0	inactive: 0	inactive: 0	–
O=C(O)CCNC(=O)c1ccc(/N=N/c2ccc(O)c(C(=O)O)c2)cc1 [Balsalazide] (10 µM)	inactive: 0	inactive: 0	inactive: 0	inactive: 0	inactive: 0	inactive: 0	inactive: 0	inactive: 0	inactive: 0	–
COc1cc2c(Nc3ccc(Br)cc3F)ncnc2cc1OCCn1ccnn1 (10 µM)	inactive: 0	inactive: 0	inactive: 0	–	–	–	–	–	–	–
COc1cc(Nc2ncc3c(n2)-c2ccc(Cl)cc2C(c2c(F)cccc2OC)=NC3)ccc1C(=O)O [Alisertib] (2.5 µM)	inactive: 0	inactive: 0	inactive: 0	–	–	–	–	–	–	–
